Results are given in words; binding and its absence hold for the method and conditions named. Binding seen in cells or lysates may run through a third protein. Some entries that bind do so weakly or less than the wild type.
How the values were obtained:
[1] = target: nuclear factor kappa B p65 subunit (NFκB/p65) (human (endogenous in KYSE150)) (UniProt Q04206); assay: co-IP; nuclear extracts (500 µg/mL) of KYSE150 cells, untreated or treated with MLN4924 (1 µM, 24 h) or TNF-α (30 ng/mL, 1 h); anti-NFκB/p65 antibody overnight at 4 °C, Protein G magnetic beads, washed with 10 mM HEPES pH 7.6; Western blot
[2] = target: c-Jun (human (endogenous in KYSE150)) (UniProt P05412); assay: co-IP; nuclear protein-enriched extracts of KYSE150 cells, untreated or treated with MLN4924 (1 µM, 24 h) or TNF-α (30 ng/mL, 1 h); rabbit anti-c-Jun antibody; Western blot

Amino acid sequences for entries named in this document (tags omitted).
UniProt Q04206: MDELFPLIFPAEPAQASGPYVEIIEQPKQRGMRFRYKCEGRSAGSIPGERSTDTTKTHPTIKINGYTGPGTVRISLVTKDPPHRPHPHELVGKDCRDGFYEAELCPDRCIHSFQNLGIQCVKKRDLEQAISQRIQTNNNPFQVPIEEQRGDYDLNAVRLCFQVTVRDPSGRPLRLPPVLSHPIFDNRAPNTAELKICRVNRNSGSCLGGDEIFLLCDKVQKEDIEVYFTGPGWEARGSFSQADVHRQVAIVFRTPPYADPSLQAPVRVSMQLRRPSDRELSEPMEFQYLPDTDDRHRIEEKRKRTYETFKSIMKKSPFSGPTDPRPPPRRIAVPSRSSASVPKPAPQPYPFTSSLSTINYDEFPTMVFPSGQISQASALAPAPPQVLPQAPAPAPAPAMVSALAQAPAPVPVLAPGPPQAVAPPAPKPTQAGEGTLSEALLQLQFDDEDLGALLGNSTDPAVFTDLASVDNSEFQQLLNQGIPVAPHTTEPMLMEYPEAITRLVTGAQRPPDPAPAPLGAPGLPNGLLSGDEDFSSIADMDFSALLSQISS
UniProt P05412: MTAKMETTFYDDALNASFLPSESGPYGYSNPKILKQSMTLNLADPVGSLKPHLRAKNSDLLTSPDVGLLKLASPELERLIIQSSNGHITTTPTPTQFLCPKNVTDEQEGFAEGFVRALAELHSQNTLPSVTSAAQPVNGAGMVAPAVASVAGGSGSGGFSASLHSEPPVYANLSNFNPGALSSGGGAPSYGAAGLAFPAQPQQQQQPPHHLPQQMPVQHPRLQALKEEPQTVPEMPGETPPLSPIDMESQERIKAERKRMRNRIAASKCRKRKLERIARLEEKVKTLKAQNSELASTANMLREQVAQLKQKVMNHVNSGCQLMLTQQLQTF
UniProt P08047: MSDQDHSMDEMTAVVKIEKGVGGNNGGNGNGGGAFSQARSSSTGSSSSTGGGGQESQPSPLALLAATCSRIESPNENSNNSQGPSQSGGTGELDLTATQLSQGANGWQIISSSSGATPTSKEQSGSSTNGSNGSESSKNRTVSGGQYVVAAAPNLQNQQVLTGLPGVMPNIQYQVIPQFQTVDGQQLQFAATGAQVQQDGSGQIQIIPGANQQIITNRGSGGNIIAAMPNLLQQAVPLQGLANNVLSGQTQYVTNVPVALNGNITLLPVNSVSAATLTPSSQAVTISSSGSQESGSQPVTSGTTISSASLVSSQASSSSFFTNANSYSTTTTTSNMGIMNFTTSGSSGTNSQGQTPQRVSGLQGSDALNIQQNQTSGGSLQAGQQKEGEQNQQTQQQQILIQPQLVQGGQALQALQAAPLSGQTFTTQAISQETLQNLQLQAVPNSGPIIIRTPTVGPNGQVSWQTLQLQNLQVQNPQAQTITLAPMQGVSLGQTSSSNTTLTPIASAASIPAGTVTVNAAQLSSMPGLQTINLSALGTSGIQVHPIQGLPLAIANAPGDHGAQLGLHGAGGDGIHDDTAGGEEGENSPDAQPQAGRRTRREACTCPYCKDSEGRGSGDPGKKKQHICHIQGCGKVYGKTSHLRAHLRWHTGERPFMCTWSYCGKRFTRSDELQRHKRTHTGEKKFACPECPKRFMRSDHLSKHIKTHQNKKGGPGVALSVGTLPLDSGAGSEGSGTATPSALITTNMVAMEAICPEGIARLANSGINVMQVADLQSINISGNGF
UniProt P38936: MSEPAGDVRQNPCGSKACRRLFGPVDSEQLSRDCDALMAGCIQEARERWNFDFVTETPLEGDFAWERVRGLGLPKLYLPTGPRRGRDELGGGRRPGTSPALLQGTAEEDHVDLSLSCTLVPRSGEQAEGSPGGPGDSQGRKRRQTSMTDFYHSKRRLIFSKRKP

Row | Substance | binding [1] | binding [2]
1 | c-Jun (from UniProt P05412 1-331) | binds | –
2 | nuclear factor kappa B p65 subunit (NFκB/p65) (from UniProt Q04206 1-551) | – | binds
3 | SP1 (from UniProt P08047 1-785) | binds | –
4 | cyclin dependent kinase inhibitor 1A (CDKN1A/p21) (from UniProt P38936 1-164) | binds | –
5 | phospho-c-Jun (Ser73) (from UniProt P05412 1-331) | binds | –

Reference: publication PMC7915196
